In article PMC4548209:
Results are given in words; binding and its absence hold for the method and conditions named. For some of these results: In cells and extracts the contact can be indirect. Some results given as binding are weak or reduced against the parent protein; the word gives no strength. For some of these results: Where a sequence is shown, tags or fusion partners need not be part of it. Blank lines part the entries; values can stand above or below the substance they belong to.

Sequences of proteins named here, by UniProt entry; tags and fusion partners are left off.
UniProt Q02780: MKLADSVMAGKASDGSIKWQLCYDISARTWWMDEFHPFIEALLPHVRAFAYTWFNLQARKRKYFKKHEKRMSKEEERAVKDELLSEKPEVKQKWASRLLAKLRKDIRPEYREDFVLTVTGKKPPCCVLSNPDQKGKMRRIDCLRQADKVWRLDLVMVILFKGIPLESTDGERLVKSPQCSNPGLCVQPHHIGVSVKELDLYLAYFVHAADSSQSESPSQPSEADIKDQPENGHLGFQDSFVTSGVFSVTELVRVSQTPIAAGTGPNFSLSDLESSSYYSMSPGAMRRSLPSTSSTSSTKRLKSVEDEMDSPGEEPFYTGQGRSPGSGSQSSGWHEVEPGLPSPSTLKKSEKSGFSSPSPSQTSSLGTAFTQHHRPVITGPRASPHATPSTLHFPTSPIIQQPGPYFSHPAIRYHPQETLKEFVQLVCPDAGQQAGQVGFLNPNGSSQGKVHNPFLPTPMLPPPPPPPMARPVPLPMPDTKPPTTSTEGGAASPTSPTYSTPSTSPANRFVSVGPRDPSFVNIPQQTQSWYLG

Columns and labels:
[1] = target: T1, ELK3 (Rluc-PCA fusion) (mouse) (UniProt P41971); assay: split reporter; Renilla luciferase protein fragment complementation assay (Rluc-PCA) in HEK 293T cells; Rluc8.1 and Rluc8.2 fusions from a truncated CMV promoter; read 24 hr after transfection, normalised to ß-galactosidase
T1 sequence: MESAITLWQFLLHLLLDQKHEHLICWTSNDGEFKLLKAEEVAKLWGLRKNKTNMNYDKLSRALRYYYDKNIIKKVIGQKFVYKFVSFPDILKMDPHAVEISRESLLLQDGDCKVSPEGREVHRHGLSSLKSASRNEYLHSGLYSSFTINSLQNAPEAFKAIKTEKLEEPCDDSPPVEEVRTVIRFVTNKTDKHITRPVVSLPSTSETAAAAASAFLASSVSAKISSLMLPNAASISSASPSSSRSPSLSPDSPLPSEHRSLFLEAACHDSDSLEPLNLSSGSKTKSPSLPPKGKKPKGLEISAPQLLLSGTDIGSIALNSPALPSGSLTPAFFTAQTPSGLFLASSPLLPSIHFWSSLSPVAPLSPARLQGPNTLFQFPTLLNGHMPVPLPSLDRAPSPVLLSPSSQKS

[2] = target: T2, ERF (Rluc-PCA fusion) (mouse) (UniProt P70459); assay: as above
T2 sequence: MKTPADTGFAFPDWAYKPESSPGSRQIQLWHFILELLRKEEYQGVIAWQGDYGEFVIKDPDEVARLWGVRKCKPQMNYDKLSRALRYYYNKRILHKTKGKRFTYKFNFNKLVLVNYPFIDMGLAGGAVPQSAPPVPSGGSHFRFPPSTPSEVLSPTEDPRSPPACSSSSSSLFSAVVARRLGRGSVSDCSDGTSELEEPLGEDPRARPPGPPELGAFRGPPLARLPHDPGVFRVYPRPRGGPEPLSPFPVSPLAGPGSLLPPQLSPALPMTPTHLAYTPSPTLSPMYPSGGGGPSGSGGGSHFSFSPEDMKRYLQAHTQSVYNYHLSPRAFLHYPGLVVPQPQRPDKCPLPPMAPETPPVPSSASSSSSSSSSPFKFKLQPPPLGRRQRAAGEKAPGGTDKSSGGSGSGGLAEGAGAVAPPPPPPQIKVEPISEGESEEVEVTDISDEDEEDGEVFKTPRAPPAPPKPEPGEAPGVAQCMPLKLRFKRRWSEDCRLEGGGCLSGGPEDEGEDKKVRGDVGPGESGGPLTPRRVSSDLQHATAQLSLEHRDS

[3] = target: T3, ETS1 (Rluc-PCA fusion) (mouse) (UniProt P27577); assay: as above
T3 sequence: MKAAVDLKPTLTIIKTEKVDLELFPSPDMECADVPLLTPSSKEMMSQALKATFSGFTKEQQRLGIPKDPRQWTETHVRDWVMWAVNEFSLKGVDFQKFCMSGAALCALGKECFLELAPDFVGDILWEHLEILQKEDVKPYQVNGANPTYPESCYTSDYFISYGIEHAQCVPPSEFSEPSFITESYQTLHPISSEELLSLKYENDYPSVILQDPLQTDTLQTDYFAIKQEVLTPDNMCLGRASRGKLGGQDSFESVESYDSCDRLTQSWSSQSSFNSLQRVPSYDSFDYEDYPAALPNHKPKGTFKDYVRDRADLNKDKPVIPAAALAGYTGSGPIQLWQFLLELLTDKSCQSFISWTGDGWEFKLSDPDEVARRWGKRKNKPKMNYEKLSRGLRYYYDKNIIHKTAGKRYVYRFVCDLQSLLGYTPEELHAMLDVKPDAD

[4] = target: T4, GABPα (Rluc-PCA fusion) (mouse) (UniProt Q00422); assay: as above
T4 sequence: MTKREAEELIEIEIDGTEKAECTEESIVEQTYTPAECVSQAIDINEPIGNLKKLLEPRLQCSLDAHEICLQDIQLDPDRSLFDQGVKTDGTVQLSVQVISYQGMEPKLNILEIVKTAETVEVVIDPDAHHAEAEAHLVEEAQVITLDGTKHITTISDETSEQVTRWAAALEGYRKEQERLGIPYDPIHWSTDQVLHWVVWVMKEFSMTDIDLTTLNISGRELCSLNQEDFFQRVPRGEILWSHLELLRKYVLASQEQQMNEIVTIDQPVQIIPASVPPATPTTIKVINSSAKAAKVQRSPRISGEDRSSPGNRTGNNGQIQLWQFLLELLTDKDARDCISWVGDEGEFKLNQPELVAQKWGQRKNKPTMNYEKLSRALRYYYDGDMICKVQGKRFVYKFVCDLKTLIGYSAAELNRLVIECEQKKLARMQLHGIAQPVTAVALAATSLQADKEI

[5] = target: NF1-A (yeast two-hybrid fusion) (mouse) (UniProt Q02780); assay: two-hybrid; pGADT7-AD and pGBKT7-DBD fusions co-transformed into S. cerevisiae AH109; interaction as growth on -Ade/-His/-Leu/-Trp plates; three independent experiments
[6] = target: NF1-B1 (yeast two-hybrid fusion) (mouse) (UniProt P97863); assay: as above
[7] = target: NKX2-5 WT (Cerulean or Venus fusion for psFRET) (mouse) (UniProt P42582); assay: FRET or BRET; processed spectral FRET (psFRET) in live CV-1 cells transfected with Cerulean (donor) and Venus (acceptor) fusions
[8] = target: NKX2-5∆HD (NKX2-5 V142_Q199del) (Cerulean or Venus fusion for psFRET) (mouse) (UniProt P42582); assay: as above
[9] = target: Full-length NKX2-5 (yeast two-hybrid fusion) (mouse) (UniProt P42582); assay: two-hybrid; pGADT7-AD and pGBKT7-DBD fusions co-transformed into S. cerevisiae AH109; interaction as growth on -Ade/-His/-Leu/-Trp plates; three independent experiments
[10] = target: NKX2-5 C-terminal region (aa198-318) (yeast two-hybrid fusion) (mouse) (UniProt P42582); assay: as above

- binding [1]: binds
- binding [2]: binds
- binding [3]: binds
- binding [4]: binds
Substance: NKX2-5 WT (Rluc-PCA fusion) (from UniProt P42582 1-318)

- binding [5]: no binding
- binding [6]: binds
Substance: Full-length NKX2-5 (yeast two-hybrid fusion) (from UniProt P42582 1-318)

- binding [7]: binds
- binding [8]: binds
Substance: NKX2-5∆HD (NKX2-5 V142_Q199del) (Cerulean or Venus fusion for psFRET) (from UniProt P42582 1-141; P42582 200-318)

- binding [9]: binds
- binding [10]: binds
Substance: NKX2-5 C-terminal region (aa198-318) (yeast two-hybrid fusion) (from UniProt P42582 198-318) (domain or fragment)
